Experimental data: PubChem BioAssay AID1259254 (NCATS, 2017)
Here is a random part of about 59,000 deposited reagents. Over the whole deposit, about 1,550 (2.6%) got an active call. 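G2 share is only a proxy for re-replication; each gene was hit by three separate siRNAs, and active genes were retested.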 Unmarked entries are inactive. The numbers tell different reagents against one gene apart. Not all columns of the deposit are shown. Not stated in the record: the amount of reagent.

Purpose: 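Finding genes that stop cells copying their DNA twice in one cycle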 (primary screen)
Cells: human HCT116 colorectal cancer cells
Knock-down reagent: single siRNA against human genes
Timing: 3 days
Measured: 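Nuclei stained with Hoechst and imaged; cell-cycle phase assigned by DNA content; G2 share scaled per plate, non-targeting siRNA 0%, GMNN siRNA 100%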
Direction: G2 robust z-score: higher = more G2 cells, more excess DNA replication
Active means: 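Active siRNAs have a G2 robust z of 5 or more median absolute deviations over the median, which in these data means about 38% or higher of GMNN control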

With RAB3GAP1 #1, what was measured?
G2 robust z-score: 2.91

For RAB3GAP1 #2, what was measured?
G2 robust z-score: -0.526

For RAB3GAP1 #3, what does the deposit list?
G2 robust z-score: 0.00317

With MAP3K19 #1, what does the deposit list?
G2 robust z-score: 0.383

Which result is listed for MAP3K19 #2?
G2 robust z-score: 1.06

For MAP3K19 #3, what does the deposit list?
G2 robust z-score: -0.662

How did the screen score LPCAT3 #1?
G2 robust z-score: 2.04

For LPCAT3 #2, what was measured?
G2 robust z-score: -0.529

Which result is listed for LPCAT3 #3?
G2 robust z-score: 0.314

2 of these entries in another layout:
MAP3K19 #2
- G2 robust z-score: 1.06

MAP3K19 #3
- G2 robust z-score: -0.662

Continued:
Which result is listed for IL36G #1?
G2 robust z-score: 6.2 (active)

How did the screen score IL36G #2?
G2 robust z-score: -0.238

For IL36G #3, what does the deposit list?
G2 robust z-score: 1.27

With SPHAR (retired record) #1, what does the deposit list?
G2 robust z-score: 0.703

For SPHAR (retired record) #2, how do the results read?
G2 robust z-score: 0.518

How did the screen score SPHAR (retired record) #3?
G2 robust z-score: 0.621

With TWIST1 #1, what was measured?
G2 robust z-score: -0.74

With TWIST1 #2, how do the results read?
G2 robust z-score: 1.02

For TWIST1 #3, what does the deposit list?
G2 robust z-score: 0.118
